Results are given in words; binding and its absence hold for the method and conditions named. Binding seen in cells or lysates may run through a third protein. Some results given as binding are weak or reduced against the parent protein; the word gives no strength.
Molecular target: CCL22-GST protein
Test: GST pulldown: 120 ng CCL22-GST mixed with 360 ng (N-CCR4)3 on GST agarose, SDS-PAGE with silver staining; GST alone as control

binding: binds
B1: (N-CCR4)3 protein (receptor)
chain: MNPTDIADTTLDESIYSNYYLYESIPKPCTKEGIKAFGELFLPPLYSGGGGSGGGGSMNPTDIADTTLDESIYSNYYLYESIPKPCTKEGIKAFGELFLPPLYSGGGGSGGGGSMNPTDIADTTLDESIYSNYYLYESIPKPCTKEGIKAFGELFLPPLYSLDPNSSSVDKLAAALEHHHHHH

From US20200339660A1
